Laboratory results: the supplement of paper PMC11006884
The targets with a hit were mostly taken out for another list; the other results follow. Single values of this set are uncertain. The list shows a part of the results, in another mix than the full data.

Chains of the proteins cited; added tags and fusions are not shown. Lines headed by an entry give the natural chain unless they say otherwise; changes in a name come on top.
UniProt O00571: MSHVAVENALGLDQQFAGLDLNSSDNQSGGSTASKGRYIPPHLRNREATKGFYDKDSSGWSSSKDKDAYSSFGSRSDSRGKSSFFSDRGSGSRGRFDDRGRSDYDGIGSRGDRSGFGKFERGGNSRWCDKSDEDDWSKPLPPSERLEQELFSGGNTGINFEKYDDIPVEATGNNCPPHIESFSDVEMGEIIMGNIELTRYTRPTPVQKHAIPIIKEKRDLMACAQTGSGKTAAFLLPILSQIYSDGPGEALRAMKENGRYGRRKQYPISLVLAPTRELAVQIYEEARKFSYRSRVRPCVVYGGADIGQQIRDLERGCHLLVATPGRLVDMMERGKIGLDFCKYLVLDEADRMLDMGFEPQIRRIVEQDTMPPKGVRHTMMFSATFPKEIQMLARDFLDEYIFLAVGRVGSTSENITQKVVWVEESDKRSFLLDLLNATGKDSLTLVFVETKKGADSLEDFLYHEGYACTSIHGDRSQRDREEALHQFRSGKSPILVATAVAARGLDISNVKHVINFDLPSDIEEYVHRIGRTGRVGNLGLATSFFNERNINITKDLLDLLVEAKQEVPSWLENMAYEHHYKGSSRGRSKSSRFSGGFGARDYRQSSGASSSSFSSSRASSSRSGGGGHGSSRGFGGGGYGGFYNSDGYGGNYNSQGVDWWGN
UniProt Q96PC5: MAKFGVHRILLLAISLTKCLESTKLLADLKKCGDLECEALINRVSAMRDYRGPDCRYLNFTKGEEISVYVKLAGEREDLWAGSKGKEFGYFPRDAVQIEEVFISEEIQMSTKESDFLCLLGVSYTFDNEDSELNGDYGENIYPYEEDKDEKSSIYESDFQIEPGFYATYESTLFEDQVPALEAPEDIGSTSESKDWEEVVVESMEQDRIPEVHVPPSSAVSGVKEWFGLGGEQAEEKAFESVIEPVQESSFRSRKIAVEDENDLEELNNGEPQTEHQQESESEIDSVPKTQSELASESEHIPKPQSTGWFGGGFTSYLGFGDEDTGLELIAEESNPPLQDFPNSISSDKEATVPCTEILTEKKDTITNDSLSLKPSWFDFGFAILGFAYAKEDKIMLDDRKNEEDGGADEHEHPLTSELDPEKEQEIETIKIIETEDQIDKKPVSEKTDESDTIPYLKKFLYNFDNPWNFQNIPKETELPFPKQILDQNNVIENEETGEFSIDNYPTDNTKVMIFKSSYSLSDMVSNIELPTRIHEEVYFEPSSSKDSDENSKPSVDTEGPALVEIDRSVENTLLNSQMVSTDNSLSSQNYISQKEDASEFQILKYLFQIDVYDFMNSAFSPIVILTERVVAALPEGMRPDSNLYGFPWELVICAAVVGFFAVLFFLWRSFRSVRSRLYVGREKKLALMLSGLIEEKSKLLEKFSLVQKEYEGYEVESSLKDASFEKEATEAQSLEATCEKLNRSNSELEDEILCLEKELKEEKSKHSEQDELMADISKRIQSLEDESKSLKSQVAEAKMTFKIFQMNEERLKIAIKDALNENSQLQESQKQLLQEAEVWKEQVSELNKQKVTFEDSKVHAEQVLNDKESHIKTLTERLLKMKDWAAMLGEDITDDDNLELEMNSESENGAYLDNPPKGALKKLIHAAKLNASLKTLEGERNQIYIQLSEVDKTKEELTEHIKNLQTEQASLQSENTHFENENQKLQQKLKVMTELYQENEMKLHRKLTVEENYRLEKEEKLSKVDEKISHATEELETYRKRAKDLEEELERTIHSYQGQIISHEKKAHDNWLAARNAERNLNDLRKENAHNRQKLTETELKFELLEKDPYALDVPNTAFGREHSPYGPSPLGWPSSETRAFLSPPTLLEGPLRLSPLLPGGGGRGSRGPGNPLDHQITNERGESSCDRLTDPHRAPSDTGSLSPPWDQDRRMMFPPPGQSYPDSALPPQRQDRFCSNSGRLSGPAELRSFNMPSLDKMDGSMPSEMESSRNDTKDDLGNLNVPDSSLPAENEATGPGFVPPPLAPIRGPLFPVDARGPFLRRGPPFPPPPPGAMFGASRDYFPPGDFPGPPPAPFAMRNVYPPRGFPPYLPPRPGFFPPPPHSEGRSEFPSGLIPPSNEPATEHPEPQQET
UniProt O00264: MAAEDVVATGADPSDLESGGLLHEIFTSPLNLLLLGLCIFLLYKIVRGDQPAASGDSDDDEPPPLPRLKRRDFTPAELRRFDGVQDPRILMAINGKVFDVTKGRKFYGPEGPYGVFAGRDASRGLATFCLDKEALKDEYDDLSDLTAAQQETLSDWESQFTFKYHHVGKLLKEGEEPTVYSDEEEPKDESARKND
UniProt O15371, whole entry, looked up: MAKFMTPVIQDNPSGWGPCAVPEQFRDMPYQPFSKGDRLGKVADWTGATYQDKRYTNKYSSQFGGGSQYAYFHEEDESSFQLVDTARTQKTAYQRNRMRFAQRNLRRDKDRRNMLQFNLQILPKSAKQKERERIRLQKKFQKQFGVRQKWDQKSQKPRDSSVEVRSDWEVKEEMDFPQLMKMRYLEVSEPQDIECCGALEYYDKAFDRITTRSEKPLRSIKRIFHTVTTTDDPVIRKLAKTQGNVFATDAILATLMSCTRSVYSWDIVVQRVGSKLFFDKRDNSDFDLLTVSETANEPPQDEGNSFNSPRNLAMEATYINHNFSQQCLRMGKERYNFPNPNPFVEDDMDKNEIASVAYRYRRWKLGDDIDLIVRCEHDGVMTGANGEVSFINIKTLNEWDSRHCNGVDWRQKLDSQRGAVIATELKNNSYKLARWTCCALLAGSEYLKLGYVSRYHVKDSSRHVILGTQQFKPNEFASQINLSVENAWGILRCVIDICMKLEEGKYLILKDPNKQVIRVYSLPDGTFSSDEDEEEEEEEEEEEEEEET
UniProt O15304: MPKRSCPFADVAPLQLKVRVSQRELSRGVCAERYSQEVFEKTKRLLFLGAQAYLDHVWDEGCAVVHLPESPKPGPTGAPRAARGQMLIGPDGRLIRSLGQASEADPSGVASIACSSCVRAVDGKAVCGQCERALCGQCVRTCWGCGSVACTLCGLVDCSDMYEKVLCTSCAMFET
UniProt O15355: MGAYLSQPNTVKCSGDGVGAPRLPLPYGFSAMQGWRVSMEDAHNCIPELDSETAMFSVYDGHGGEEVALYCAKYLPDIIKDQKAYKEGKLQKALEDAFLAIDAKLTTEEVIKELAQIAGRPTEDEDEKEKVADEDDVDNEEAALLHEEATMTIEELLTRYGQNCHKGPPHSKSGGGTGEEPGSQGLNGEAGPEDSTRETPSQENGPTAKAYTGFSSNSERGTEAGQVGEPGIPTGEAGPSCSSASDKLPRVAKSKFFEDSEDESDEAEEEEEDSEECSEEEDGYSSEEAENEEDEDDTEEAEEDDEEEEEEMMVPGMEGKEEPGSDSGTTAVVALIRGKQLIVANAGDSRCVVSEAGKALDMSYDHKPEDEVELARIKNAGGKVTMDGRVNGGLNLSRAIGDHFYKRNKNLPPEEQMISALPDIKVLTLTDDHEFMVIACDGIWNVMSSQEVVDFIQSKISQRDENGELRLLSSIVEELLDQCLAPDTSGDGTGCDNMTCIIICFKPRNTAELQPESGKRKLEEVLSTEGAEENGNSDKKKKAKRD
UniProt O00487, whole entry, looked up: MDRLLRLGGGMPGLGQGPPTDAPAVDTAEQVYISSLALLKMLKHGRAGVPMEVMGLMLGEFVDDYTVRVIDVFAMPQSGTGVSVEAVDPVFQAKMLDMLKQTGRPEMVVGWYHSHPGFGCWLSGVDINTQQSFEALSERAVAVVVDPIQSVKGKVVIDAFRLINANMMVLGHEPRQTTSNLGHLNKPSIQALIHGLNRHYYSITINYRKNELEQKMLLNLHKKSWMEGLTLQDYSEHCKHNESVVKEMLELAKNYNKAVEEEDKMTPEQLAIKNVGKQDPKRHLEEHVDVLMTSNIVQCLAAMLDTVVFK
UniProt O14964, whole entry, looked up: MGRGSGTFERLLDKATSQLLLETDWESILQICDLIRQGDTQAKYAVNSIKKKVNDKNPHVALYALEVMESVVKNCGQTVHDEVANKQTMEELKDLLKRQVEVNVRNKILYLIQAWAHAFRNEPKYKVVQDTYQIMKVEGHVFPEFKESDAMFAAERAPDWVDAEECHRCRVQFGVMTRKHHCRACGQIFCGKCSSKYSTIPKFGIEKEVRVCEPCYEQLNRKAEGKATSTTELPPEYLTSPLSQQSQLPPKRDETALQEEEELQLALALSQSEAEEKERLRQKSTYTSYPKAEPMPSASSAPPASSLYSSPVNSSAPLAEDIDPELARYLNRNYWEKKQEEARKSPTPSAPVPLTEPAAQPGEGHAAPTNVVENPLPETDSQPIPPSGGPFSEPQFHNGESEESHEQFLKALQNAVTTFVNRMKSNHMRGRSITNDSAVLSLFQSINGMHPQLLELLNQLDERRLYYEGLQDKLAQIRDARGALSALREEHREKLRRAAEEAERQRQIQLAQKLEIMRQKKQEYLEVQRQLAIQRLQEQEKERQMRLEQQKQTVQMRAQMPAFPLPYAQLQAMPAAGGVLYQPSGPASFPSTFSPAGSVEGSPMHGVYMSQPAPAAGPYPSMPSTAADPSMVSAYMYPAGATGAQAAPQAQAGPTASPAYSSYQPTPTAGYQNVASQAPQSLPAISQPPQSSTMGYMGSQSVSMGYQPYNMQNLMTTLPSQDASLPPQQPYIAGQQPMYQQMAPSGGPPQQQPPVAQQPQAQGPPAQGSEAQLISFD
UniProt O14980, whole entry, looked up: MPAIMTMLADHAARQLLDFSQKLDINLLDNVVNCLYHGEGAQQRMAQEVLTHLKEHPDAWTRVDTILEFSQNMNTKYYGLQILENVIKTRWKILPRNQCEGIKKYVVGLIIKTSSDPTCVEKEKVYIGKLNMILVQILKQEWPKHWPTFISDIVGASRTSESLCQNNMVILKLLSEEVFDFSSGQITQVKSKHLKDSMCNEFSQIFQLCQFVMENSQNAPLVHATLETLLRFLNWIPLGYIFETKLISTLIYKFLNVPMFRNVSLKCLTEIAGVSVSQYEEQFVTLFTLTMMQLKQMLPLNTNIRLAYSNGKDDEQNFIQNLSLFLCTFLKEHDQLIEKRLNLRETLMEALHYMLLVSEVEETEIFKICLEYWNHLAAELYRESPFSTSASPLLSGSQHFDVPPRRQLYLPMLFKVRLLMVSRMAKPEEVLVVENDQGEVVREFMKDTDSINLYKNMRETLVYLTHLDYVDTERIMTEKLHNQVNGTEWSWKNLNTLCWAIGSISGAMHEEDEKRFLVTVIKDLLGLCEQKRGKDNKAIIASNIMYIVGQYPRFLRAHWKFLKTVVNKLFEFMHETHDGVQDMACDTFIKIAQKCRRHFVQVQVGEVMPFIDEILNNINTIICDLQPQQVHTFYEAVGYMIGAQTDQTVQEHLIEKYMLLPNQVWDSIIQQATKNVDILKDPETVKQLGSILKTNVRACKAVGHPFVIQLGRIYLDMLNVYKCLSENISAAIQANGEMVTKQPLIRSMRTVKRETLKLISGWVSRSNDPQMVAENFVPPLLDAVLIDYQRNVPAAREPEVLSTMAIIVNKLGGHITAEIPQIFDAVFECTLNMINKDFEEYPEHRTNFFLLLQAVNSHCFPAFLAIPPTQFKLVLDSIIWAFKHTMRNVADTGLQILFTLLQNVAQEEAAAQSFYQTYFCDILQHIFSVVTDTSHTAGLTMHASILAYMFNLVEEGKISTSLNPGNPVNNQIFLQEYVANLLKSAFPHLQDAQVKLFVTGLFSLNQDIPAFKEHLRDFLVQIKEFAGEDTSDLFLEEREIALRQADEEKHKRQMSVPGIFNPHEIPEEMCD
UniProt O15260: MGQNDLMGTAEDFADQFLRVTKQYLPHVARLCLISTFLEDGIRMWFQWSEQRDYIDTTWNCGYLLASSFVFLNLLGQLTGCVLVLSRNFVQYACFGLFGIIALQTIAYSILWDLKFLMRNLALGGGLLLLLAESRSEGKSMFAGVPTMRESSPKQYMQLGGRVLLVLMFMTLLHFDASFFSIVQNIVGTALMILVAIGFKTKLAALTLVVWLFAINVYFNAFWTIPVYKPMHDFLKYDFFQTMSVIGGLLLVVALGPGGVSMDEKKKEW
UniProt O15382: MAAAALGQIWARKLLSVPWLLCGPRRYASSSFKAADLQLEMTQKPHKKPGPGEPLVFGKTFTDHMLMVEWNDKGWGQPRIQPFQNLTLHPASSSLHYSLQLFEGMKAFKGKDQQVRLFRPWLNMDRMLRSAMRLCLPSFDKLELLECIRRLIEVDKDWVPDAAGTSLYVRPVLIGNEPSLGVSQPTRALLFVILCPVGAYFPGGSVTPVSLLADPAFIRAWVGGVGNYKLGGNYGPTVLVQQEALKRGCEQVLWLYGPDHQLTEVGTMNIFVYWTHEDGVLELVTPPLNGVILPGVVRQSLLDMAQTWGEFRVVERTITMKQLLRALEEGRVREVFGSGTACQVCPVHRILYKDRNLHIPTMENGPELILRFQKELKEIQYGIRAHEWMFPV

compound: COC(=O)/C=C/c1ccccc1 [methyl cinnamate]; experiment: log2 ratio of iodoacetamide-alkyne labeling of the cysteine site, DMSO over compound (competition); higher = stronger covalent engagement of the cysteine by the compound, active = 1 or more; details: 500 µM; treatment time 1 h; system: HEK293T cell lysate
How it was run: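 HEK293T lysate (2 mg/mL) was incubated with electrophile (500 µM) or vehicle for 1 h at ambient temperature and then with iodoacetamide alkyne for 1 h. Labelled proteins were clicked to sCIP-TMT reagents, pooled, digested, enriched on streptavidin and measured by Orbitrap Eclipse LC-MS/MS with FAIMS, with FragPipe quantification. The per-cysteine log2 competition ratio is mean control-channel reporter intensity over mean compound-channel reporter intensity. Across three replicates with duplicate channels, cysteines quantified in only one replicate were excluded.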

log2 ratio of iodoacetamide-alkyne labeling, inactive:
DDX3X C341 (UniProt O00571) 0.2
HAT1 C27 (UniProt O14929) 0.313
ARID1A C1874 (UniProt O14497) 0.182
O15320_C147 (UniProt Q96PC5+O15320) -0.211
DDX3X C223 (UniProt O00571) 0.148
PGRMC1 C129 (UniProt O00264) 0.27
RNMT C73 (UniProt O43148) 0.446
SPTBN2 C2043 (UniProt O15020) 0.0632
MYO1C C802 (UniProt O00159) 0.125
EIF3D C327 (UniProt O15371) -0.074
UniProt O15042_C320 0.115
IRS4 C257 (UniProt O14654) -0.00739
KIF2A C596 (UniProt O00139) -0.148
SIVA1 C6 (UniProt O15304) 0.209
PPM1G C351 (UniProt O15355) 0.596
UniProt O00487_C299 -0.529
EIF3F C256 (UniProt O00303) 0.0642
HGS C166 (UniProt O14964) 0.0557
XPO1 C829 (UniProt O14980) 0.0643
NVL C192 (UniProt O15381) 0.186
SURF4 C32 (UniProt O15260) 0.387
BCAT2 C342 (UniProt O15382) -0.00336

No new results follow: an excerpt of the list.
log2 ratio of iodoacetamide-alkyne labeling, inactive:
SIVA1 C6 (UniProt O15304) 0.209
PPM1G C351 (UniProt O15355) 0.596
UniProt O00487_C299 -0.529
EIF3F C256 (UniProt O00303) 0.0642
HGS C166 (UniProt O14964) 0.0557
XPO1 C829 (UniProt O14980) 0.0643
